{
  "source": "PubChem BioAssay (NCATS)",
  "note": "This is one part of the list. The main result of the screen is listed elsewhere. These columns were measured beside it and carry no call. Compounds called inactive in the main read-out are mostly missing here. Words in brackets tell the shape of the fitted curve; partial curves, single points and poor fits give uncertain potencies.",
  "data": [
    {"assay": "S16 Schwann cell PMP22 intronic element beta-lactamase assay (AID 624044)", "details": "S16 rat Schwann cells, PMP22 element beta-lactamase FRET, 24 h; measured here: 530 nm viability channel", "outline": "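Rat S16 Schwann cells with beta-Lac driven by a PMP22 intronic element, compound-treated 24 h at 37 °C. LiveBLAzer FRET B/G read: 460 nm normalized to potassium clavulanate vs DMSO; 535 nm FRET as viability; concentration-effect curves classified.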", "values": [
      {"molecule": "O=C(O)[C@H](CC(=O)N1C[C@H]2CCCC[C@H]2C1)Cc1ccccc1", "AC50": "14100 nM [falling, single point]"},
      {"molecule": "C[N+]1(C)CCC(=C(c2ccccc2)c2ccccc2)CC1", "AC50": "12.6 nM [falling, full curve]"},
      {"molecule": "CC1(C)Oc2ccc(C#N)cc2[C@H](N2CCCC2=O)[C@H]1O", "AC50": "1780 nM [falling, full curve, poor fit]"},
      {"molecule": "O=C(O)c1ccc(OCCCOc2ccc(C(=O)O)cc2)cc1", "AC50": "112 nM [falling, full curve, poor fit]"}
    ]}
  ]
}
